# Test results: PMC11040345
# Amino acid sequences for entries named in this document (tags omitted).
# UniProt P19338: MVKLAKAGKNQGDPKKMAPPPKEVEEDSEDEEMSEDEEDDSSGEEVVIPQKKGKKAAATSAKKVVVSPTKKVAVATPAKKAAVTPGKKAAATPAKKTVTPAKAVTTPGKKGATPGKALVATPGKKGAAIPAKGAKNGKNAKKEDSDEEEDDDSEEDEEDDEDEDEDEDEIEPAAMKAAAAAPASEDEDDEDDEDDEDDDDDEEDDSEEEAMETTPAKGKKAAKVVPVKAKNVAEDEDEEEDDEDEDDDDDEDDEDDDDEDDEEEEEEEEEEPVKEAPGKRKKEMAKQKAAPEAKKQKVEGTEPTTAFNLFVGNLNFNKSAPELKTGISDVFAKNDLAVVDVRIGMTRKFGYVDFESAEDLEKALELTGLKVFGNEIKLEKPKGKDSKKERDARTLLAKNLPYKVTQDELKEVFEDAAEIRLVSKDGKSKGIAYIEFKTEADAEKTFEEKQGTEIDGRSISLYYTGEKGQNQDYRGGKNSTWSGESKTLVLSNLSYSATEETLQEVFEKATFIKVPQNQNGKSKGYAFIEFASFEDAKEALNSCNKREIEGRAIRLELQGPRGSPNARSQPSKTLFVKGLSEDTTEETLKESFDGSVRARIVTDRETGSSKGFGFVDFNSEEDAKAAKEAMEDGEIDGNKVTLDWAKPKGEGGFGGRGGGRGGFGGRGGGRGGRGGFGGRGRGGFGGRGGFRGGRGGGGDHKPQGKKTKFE
# UniProt P19474: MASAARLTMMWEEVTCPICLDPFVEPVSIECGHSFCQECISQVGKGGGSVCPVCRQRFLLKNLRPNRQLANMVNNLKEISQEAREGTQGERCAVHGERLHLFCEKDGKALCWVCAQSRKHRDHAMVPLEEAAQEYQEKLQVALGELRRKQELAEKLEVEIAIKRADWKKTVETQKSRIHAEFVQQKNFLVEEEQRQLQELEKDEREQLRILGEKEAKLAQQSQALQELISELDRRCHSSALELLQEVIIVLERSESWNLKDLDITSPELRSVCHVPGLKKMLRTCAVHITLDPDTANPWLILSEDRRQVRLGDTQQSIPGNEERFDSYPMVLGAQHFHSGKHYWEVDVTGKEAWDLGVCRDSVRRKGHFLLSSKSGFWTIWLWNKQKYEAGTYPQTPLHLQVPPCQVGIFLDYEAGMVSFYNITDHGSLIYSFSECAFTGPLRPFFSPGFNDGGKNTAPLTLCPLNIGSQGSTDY
# No constants are given. Whether binding was seen depends on the method and setting. In cells and extracts the contact can be indirect. Some binding calls cover weakened binding; strength is not graded here.
# Tests used:
# [1] = target: nucleolin (NCL), endogenous in 293T cells (human (endogenous in 293T)) (UniProt P19338); assay: co-IP; 293T cells transfected with MYC-tagged TRIM21, siNC or si-circ0006646, treated with 10 µM MG132 for 6 h; lysate incubated with anti-NCL, then protein A/G magnetic beads; blots for MYC and NCL
# [2] = target: nucleolin (NCL) (human (endogenous in HCCLM3)) (UniProt P19338); assay: co-IP; HCCLM3 lysate incubated with anti-NCL or anti-IgG, then protein A/G magnetic beads; blots for TRIM21 and NCL
binding [1],binding [2],Substance
binds,–,MYC-tagged TRIM21 (from UniProt P19474 1-475)
–,binds,tripartite motif-containing 21 (TRIM21) (from UniProt P19474 1-475)
